# Test results taken from the supplement of paper PMC10338343.
# ± gives the standard deviation. The list shows a part of the results. Many entries were measured with a wide error.
# System: EfPiwi piRISC loaded with L1MC piRNA (26 nt)
# Test: pre-steady-state target cleavage rate (min^-1); guide: L1MC piRNA 5'p-UAACUAAAUACUAUGCAAGCUGUAGG; MIWI and MILI are mouse PIWI proteins and EfPiwi is from a freshwater sponge; tags in brackets are library labels; higher = faster piRNA-guided slicing of the target
# Details: auxiliary factor: 500 nM Ephydatia muelleri Gtsf1
# In short: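 Cleave-'n-Seq: 1 nM active affinity-purified piRISC with one synthetic guide and 0.1 nM transcribed, DNA-blocked target RNA library were mixed, with or without 500 nM GTSF1 partner protein, in HEPES–potassium acetate buffer at 33 °C for 0–8 or 0–960 min. Uncleaved targets were sequenced and normalised to depth and to weakly complementary targets, three trials were pooled, and k3 was capped at 0.0001 min^-1. The pre-steady-state cleavage rate was fitted […].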
row,Sequence,pre-steady-state target cleavage rate
1,UCCUGGAUGUCGAACGUUUCAAUUUAGUUA,0.000439 ± 0.013
2,UCCUGCUACAGCUUGCAUAGUAUUUAGUCUA,0.00636 ± 0.0024
3,UCCUGGAUGUCGUUUGCAUAGUAUUUAGUUA,0.0445 ± 0.013
4,UCCUGCUACAGCUUGCAUAGUAUUUAUGUUA,0.00419 ± 0.0019
5,UCCUCCUACAGGUUGCAUAGUUUUUAGUUA,0.00915 ± 0.0022
6,UCCUGGAUCAGCUAGCAUAGUAUUUUGUUA,0.00212 ± 0.0029
7,UCCUGGAACAGCUUGACAUAGUAUUUAGUUA,0.013 ± 0.004
8,UCCUCCUAGAGCUUGCAUAGUAUUUAGUUA,0.0186 ± 0.0054
9,UCCUGGUACAGCUUGCAUAGAUUUUAGUUA,0.000884 ± 0.01

# Two records drawn at random from the list so far, as already listed:
row,Sequence,pre-steady-state target cleavage rate
2,UCCUGCUACAGCUUGCAUAGUAUUUAGUCUA,0.00636 ± 0.0024
4,UCCUGCUACAGCUUGCAUAGUAUUUAUGUUA,0.00419 ± 0.0019

# Same assay, conditions: auxiliary factor: none (no Gtsf1)
row,Sequence,pre-steady-state target cleavage rate
1,UCCUGGUACAGCUUGCAUUGUAAUUAGUUA,0.000275 ± 0.041
2,UCCUGGAUGUGCUUGCAUAGUAGUUAGUUA,0.00235 ± 0.0072
3,UCCUGCUACACCUUGCAUAGUUUUUAGUUA,0.000432 ± 0.02
4,UCCUGGAUGUCGAACGUAUGAAUUUAGAUA,< 0.0001
5,UCCUGGUACAGCUUGCAAACUAUUUAGUUA,0.000789 ± 0.012
6,UCCUGGAUGUGCUUGCAUGGUAUUUAGUUA,0.000667 ± 0.02
7,UCCUGCUACAGCUUGGAUAGUAUUUAGUAA,0.000363 ± 0.012
